Results on 34 molecules are retold here after the supplement of paper PMC9135407.

The assay concerns primary human hepatic stellate cells (donor 1). As to the kind of experiment: percent Bodipy-positive cells; higher = more lipid droplet accumulation. The settings on record: 48 h.
[1] abbreviates: library stock concentration: 10 mM.
Where [2] appears, read: library stock concentration: 3.33 mM.
The mark [3] stands for this setting: library stock concentration: 7.1 mM.
Where [4] appears, read: library stock concentration: 6.4 mM.

“And” between values parts separate entries of the source, which are not always exact repeats. Identical values can stand only once. Counter-ions that a name gives are not always drawn. ± gives the standard deviation of the averaged measurements. The list shows a part of the results. Plates or batches differ in their baseline, so values are only roughly comparable.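 Culture-activated primary human stellate myofibroblasts, where regained lipid droplets signal inactivation. Value: share of Hoechst-counted cells above a per-plate Bodipy cutoff, in duplicate wells, with DMSO negative and nortriptyline positive controls on each plate. Hits: a control-normalized score above the plate's top-tenth-percentile nortriptyline wells, or one of a plate's three best wells. Final well concentrations are not given.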

Take `Cc1ncc([N+](=O)[O-])n1CC(O)CCl` (stereo not drawn): the “percent Bodipy-positive cells” value under setting [1] turned out to be 8.02 ± 2%. Turning to `Cc1ncc([N+](=O)[O-])n1CC(O)CCl` (stereo not drawn) [Ornidazole], the “percent Bodipy-positive cells” value worked out at 25.1 ± 0.42%. Besides, the “percent Bodipy-positive cells” value under setting [2] was 10.7 ± 0.65%. Further, the “percent Bodipy-positive cells” value (library stock concentration: 9.1 mM) was found to be 13.5 ± 3.9%. Besides, the “percent Bodipy-positive cells” value under setting [1] was found to be 21.9 ± 4.3%. On to `CC(=O)Oc1ccc2c(c1)CC[C@@H]1[C@@H]2CC[C@]2(C)[C@@H](OC(C)=O)CC[C@@H]12` [Estradiol diacetate], for which the “percent Bodipy-positive cells” value under setting [1] was determined as 27 ± 12%. Same read-out and setting: next, `NC(=O)N1c2ccccc2CC(O)c2ccccc21` (stereo not drawn) [Licarbazepine]: 6.37 ± 1.2%; `Cc1cccc(C)c1NC(=O)C1CCCCN1C` (stereo not drawn): 10.1 ± 4.5%. For `Cc1cccc(C)c1NC(=O)C1CCCCN1C` (stereo not drawn) [Mepivacaine HCl], the “percent Bodipy-positive cells” value under setting [2] stood at 12.4 ± 0.39% and the “percent Bodipy-positive cells” value under setting [1] was 23.7 ± 0.72%. In the case of `Cc1cccc(C)c1NC(=O)C1CCCCN1C` (stereo not drawn) [Mepivacaine hydrochloride], the “percent Bodipy-positive cells” value reads like this: under setting [3], 30.1 ± 3.6%; under setting [1], 49.5 ± 7%. For the molecule `CCc1nc(-c2cccc(C)c2)c(-c2ccnc(NC(=O)c3ccccc3)c2)s1`, the “percent Bodipy-positive cells” value is 20.7 ± 2.5% (library stock concentration: 80 uM); 10.1% and 16.8% (library stock concentration: 400 uM); 9.25% and 27.5% (library stock concentration: 2 mM); 9.91 ± 5% under setting [2]. `COc1ccc(C2C(=O)c3ccccc3C2=O)cc1` [Anisindione]: the “percent Bodipy-positive cells” value reads like this: (library stock concentration: 7.9 mM) 18.8 ± 3%; under setting [1], 29.2 ± 4%. In the case of `CN(C)c1ccc2nc3ccc(=[N+](C)C)cc-3sc2c1` [Methylene blue], the “percent Bodipy-positive cells” value (library stock concentration: 5.9 mM) worked out at 63.6 ± 12%. For the molecule `COc1cc(/C=C/C(=O)N2CCC=CC2=O)cc(OC)c1OC` [Piperlongumine], the “percent Bodipy-positive cells” value was 100%.

Turning to `O=C(Nc1ccccc1)c1ccccc1O` [Salicylanilide], the “percent Bodipy-positive cells” value by setting is: under setting [2], 13.8 ± 6%; (library stock concentration: 9.4 mM) 5.11 ± 0.45%; under setting [1], 53.6 ± 16%.

Regarding `CCCOc1ccc(/C=C2/SC(=O)NC2=O)cc1` [PIM1/2 Kinase Inhibitor VI], the “percent Bodipy-positive cells” value under setting [2] was determined as 9.3 ± 1%. For `C#C[C@]1(O)CC[C@H]2[C@@H]3CCc4cc(OC5CCCC5)ccc4[C@H]3CC[C@@]21C`, the “percent Bodipy-positive cells” value under setting [1] stood at 77.243 ± 0.064%. With `CN(C)CCC=C1c2ccccc2CCc2ccccc21` [Amitryptiline hydrochloride], the “percent Bodipy-positive cells” value was 74 ± 5.1%. Turning to `CN(C)CCC=C1c2ccccc2CCc2ccccc21` [Annoyltin], under setting [1], the “percent Bodipy-positive cells” value came to 93.67 ± 0.81%. For the molecule `CN(C)CCC=C1c2ccccc2CCc2ccccc21` [Amitriptyline HCl], the “percent Bodipy-positive cells” value under setting [2] is 38.1 ± 2%. On to `CN(C)CCC=C1c2ccccc2CCc2ccccc21` [Amitriptyline hydrochloride], for which the “percent Bodipy-positive cells” value was found to be 28.4 ± 3.6% under setting [4] and 60.5 ± 7% under setting [1].

Regarding `Cc1ccnc2c1NC(=O)c1cccnc1N2C1CC1` [Nevirapine], the “percent Bodipy-positive cells” value runs as follows: under setting [2], 17.3 ± 1.3%; under setting [1], 12.3 ± 1.4%. Consider `Cc1ccnc2c1NC(=O)c1cccnc1N2C1CC1`, for which, under setting [1], the “percent Bodipy-positive cells” value is 45.52 ± 0.35%. Same read-out and setting: with `Cc1ccnc2c1NC(=O)c1cccnc1N2C1CC1` [Viramune] the figure was 5.5 ± 2.1%.

As for `CCCCC[C@H](O)/C=C/C=C\C/C=C\C/C=C\CCCC(=O)O`, the “percent Bodipy-positive cells” value (library stock concentration: 100 uM) is 6.88 ± 5.6%. Turning to `CCCCCC=CC=CC(O)CCCCCCCC(=O)OCC(COC(=O)CCCCCCCC=CC=CC(O)CCCCC)OC(=O)CCCCCCCC=CC=CC(O)CCCCC` (stereo not drawn) [Hydroxy Linoleins], under “library stock concentration: 1 mM”, the “percent Bodipy-positive cells” value amounted to 13.3 ± 0.52%.

Regarding `CCNC(=O)C1=C(c2ccc(OC)cc2)C(=C2C=C(Cl)C(O)=CC2=O)NN1`, the “percent Bodipy-positive cells” value under setting [1] turned out to be 92.7 ± 2.4%. On to `CC(C)[C@H](CO)Nc1nc(Nc2cccc(Cl)c2)c2ncn(C(C)C)c2n1` [Purvalanol A], for which the “percent Bodipy-positive cells” value came out at 12.1 ± 1.4% under setting [2] and 25.9 ± 3.6% under setting [1]. Turning to `Cc1[nH]c(=O)c(C#N)cc1-c1ccncc1` [Milrinone], the “percent Bodipy-positive cells” value came out at 5.17 ± 1.1%. Under setting [2], the “percent Bodipy-positive cells” value is 5.22 ± 1%. In addition, the “percent Bodipy-positive cells” value (library stock concentration: 9.5 mM) turned out to be 9.53 ± 0.57%. In addition, under setting [1], the “percent Bodipy-positive cells” value is 11.2% and 20.7%. In addition, under “library stock concentration: 23.7 mM”, the “percent Bodipy-positive cells” value was 12.5 ± 0.77%. With `Cn1c(=O)c2[nH]cnc2n(C)c1=O` [Aminophylline], the “percent Bodipy-positive cells” value turned out to be 7.5 ± 3%. Also, the “percent Bodipy-positive cells” value under setting [2] worked out at 8.23 ± 3%. The “percent Bodipy-positive cells” value under setting [1] was determined as 8.42 ± 0.21%. Consider `Cn1c(=O)c2[nH]cnc2n(C)c1=O` [Oxtriphylline], for which, under setting [3], the “percent Bodipy-positive cells” value came out at 10.9 ± 7.3%. As to `Cn1c(=O)c2[nH]cnc2n(C)c1=O` [Aminophylline ethylenediamine], the “percent Bodipy-positive cells” value under setting [1] amounted to 51 ± 15%.

Take `CS(=O)(=O)c1ccc(C2=C(c3ccccc3)C(=O)OC2)cc1` [Rofecoxib]: the “percent Bodipy-positive cells” value reads like this: under setting [2], 8.64 ± 3.8%; under setting [4], 9.15% and 14.7%.

Turning to `CS(=O)(=O)c1ccc(C2=C(c3ccccc3)C(=O)OC2)cc1`, under setting [1], the “percent Bodipy-positive cells” value is 9.1 ± 2.6%. With `CNC(C)C(=O)NC(C(=O)N1CCCC1C(=O)NC(C(=O)NCCCCCCNC(=O)C(NC(=O)C1CCCN1C(=O)C(NC(=O)C(C)NC)C1CCCCC1)C(c1ccccc1)c1ccccc1)C(c1ccccc1)c1ccccc1)C1CCCCC1` (stereo not drawn), the “percent Bodipy-positive cells” value runs as follows: under setting [2], 68.7 ± 9.4%; under setting [1], 100%. In the case of `CC(=O)c1cc([N+](=O)[O-])c(Sc2cccc(Cl)c2Cl)s1`, the “percent Bodipy-positive cells” value worked out at 50 ± 30% under setting [2] and 72.8 ± 16% under setting [1]. As to `COc1cc2c(cc1OC)CN(CCc1ccc(NC(=O)c3cc(OC)c(OC)cc3NC(=O)c3cnc4ccccc4c3)cc1)CC2` [Tariquidar], the “percent Bodipy-positive cells” value under setting [2] is 36.8 ± 0.66% and the “percent Bodipy-positive cells” value under setting [1] is 60.7 ± 9.3%.
